# Laboratory results published in PubChem BioAssay (NCATS).
# Amino acid sequences for entries named in this document (tags omitted).
# UniProt P36969, whole entry, looked up: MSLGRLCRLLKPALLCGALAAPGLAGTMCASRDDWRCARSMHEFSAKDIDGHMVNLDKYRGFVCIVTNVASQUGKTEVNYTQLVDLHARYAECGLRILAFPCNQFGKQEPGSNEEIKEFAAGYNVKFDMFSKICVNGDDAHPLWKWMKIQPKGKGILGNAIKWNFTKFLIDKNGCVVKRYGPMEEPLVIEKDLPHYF
# UniProt P07203, whole entry, looked up: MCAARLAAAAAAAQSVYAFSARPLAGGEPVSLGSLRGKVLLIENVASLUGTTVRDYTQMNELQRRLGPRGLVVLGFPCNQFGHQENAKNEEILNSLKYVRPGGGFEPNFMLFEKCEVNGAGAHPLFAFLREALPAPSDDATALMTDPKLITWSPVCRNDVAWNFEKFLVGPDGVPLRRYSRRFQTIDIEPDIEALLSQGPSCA
# Inconclusive results, whose numbers are uncertain, are shown with a selection of clear calls. For part of these data: Potencies beside an inconclusive call are fits to weak or partial responses and may not hold up. Active and inactive are the calls of the source. Unless noted, calls come from the whole dose curve; as a rule, active = well fitted curve in the direction sought with a large enough effect; inconclusive = small, poorly fitted or top-dose-only effect, or another doubt; inactive = no such curve, though single readings can be large; an effect the other way counts as inactive or inconclusive.
# Legend:
# [1] = qHTS for differential inhibitors of proliferation of Plasmodium falciparum line W2 (AID 1883); details: Potency: Plasmodium falciparum W2 proliferation inhibition;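 note: potency is the fitted concentration of half-maximal effect; parasites grown with compound for 72 h before lysis and staining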
# [2] = Quantitative high throughput screen for delayed death inhibitors of the malarial parasite plastid, 48 hour incubation (AID 488752); note: potency is the fitted concentration of half-maximal effect; nearly all actives have a fitted effect of over 65% in size
# Outline: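 One-generation (48 h) growth assay: a decrease in luciferase signal from an integrated reporter in P. falciparum-infected red cells (0.1% parasitemia, 2% hematocrit) after compound exposure at 37 C indicates parasite inhibition.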
# [3] = Primary qHTS for inhibitors of MERS-S pseudo-typed particle cell entry (AID 1479149; calls by dose curve; note: potency is the fitted concentration of half-maximal effect; nearly all actives have a fitted effect of over 60% in size); details: outcome: dose series up to 57.1 µM unless noted
# [4] = Confirmatory qHTS for VERO E6 Cytotoxicity Assay: Counterscreen for SARS-CoV-2 CPE Assay (AID 1508605; calls by dose curve; note: % is set by controls: 0 for no effect and ±100 for the full control effect; nearly all actives have a fitted effect of over 60% in size)
# [5] = qHTS assay to identify inhibitors of the type 1 interferon - major histocompatibility complex class I in skeletal muscle: Counter screen cell viability and HiBit confirmation (AID 1347412); details: iHSKM muscle cells + IFN-b, HiBiT or CellTiter-Glo, 24 h; for activity change, negative = inhibition: at 45.9 µM (top of the series); note: potency is the fitted concentration of half-maximal effect; for activity change, negative = inhibition: % is set by controls: 0 for no effect and ±100 for the full control effect; for all read-outs here: nearly all actives have a fitted effect of over 60% in size
# Outline: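 HLA-B*08:01–HiBiT knock-in immortalized human myoblasts (C25cl48) stimulated with 4.0 ng/ml human IFN-beta and dosed with compound in a 12-point 1:3 titration (top final 46 uM). After 24 hrs at 37 C, HiBiT lytic luminescence or CellTiter Glo ATP read out.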
# [6] = VSVG counterscreen qHTS to identify inhibitors of SARS-CoV-2 cell entry (AID 1645847; calls by dose curve; note: potency is the fitted concentration of half-maximal effect; nearly all actives have a fitted effect of over 65% in size); details: VSV-G pseudotyped particle entry, luciferase; activity change, negative = inhibition: at 57.2 µM (top of the series)
# Outline: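 HEK293-ACE2 cells (Expi293F stably expressing human ACE2) were pretreated with compound for 1 h at 37 °C, then infected with MLV-based VSV-G pseudotyped particles for 48 h. Luciferase luminescence was normalized to VSV-G PP and bald PP wells.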
# [7] = target: Phospholipid hydroperoxide glutathione peroxidase GPX4 (Homo sapiens) (UniProt P36969); assay: Primary qHTS Assay for Inhibitors of Recombinant Selenoprotein Glutathione Peroxidase 4 (GPX4) (AID 1845192); details: activity change, negative = inhibition: at 50 µM (top of the series); note: potency is the fitted concentration of half-maximal effect; nearly all actives have a fitted effect of over 65% in size
# Outline: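 Steps: GPX4 plus compound, 30 min RT; add GR/GSH/NADPH master mix; start with cumene hydroperoxide; read 340/450 nm fluorescence at 0 and 15 min. Finals were 200 nM GPX4, 1 mM GSH, 0.5 mM CHP, 0.5 mM NADPH, 100 nM GR.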
# [8] = target: Glutathione peroxidase 1 (Homo sapiens) (UniProt P07203); assay: Primary qHTS Assay for Inhibitors of Recombinant Selenoprotein Glutathione Peroxidase 1 (GPX1) (AID 1845191); details: activity, negative = inhibition: at 48.8 µM (top of the series); note: potency is the fitted concentration of half-maximal effect; nearly all actives have a fitted effect of over 65% in size
# Outline: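 GR-coupled readout: NADPH consumption tracked by fluorescence, ex 340/em 450 nm, at t=0 and after 15 min at RT. Final mix 10 nM GPX1, 1 mM GSH, 0.5 mM CHP, 0.5 mM NADPH, 100 nM GR, 0.01% BSA, following 30 min enzyme–compound preincubation.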
# [9] = Primary qHTS for inhibitors of SARS-S pseudo-typed particle cell entry (AID 1479145; calls by dose curve; note: potency is the fitted concentration of half-maximal effect; nearly all actives have a fitted effect of over 45% in size); details: outcome: dose series up to 57.1 µM unless noted
smiles,measurement,setting,value
CCN1C[C@]2(C)CC[C@H](O)[C@@]34[C@@H]5C[C@@H]6[C@@H](OC)C[C@@](O)(C5[C@H]6O)[C@@H](C[C@@H]23)[C@@H]14,Potency,[1],"inconclusive: 12.6 µM [inhibitor, partial curve]"
same,Potency,[2],"inconclusive: 18.5 µM [inhibitor, single point]"
Cc1c(N)nc([C@H](CC(N)=O)NC[C@@H](N)C(N)=O)nc1C(=O)N[C@H](C(=O)N[C@@H](C)[C@H](O)[C@@H](C)C(=O)N[C@@H](C(=O)NCCc1nc(-c2nc(C(=O)NCCC[S+](C)C)cs2)cs1)[C@@H](C)O)C(O[C@H]1O[C@H](CO)[C@H](O)[C@@H](O)[C@H]1O[C@H]1O[C@H](CO)[C@@H](O)[C@H](OC(N)=O)[C@@H]1O)c1cnc[nH]1 (some centres not stated),Potency,[3],"inconclusive: 28.2 µM [inhibitor, single point]"
CCCCCCC(C)(C)c1cc(O)c2c(c1)OC(C)(C)C1CC=C(CO)C[C@H]21 (some centres not stated),Potency,[4],inactive
same,Potency,[5]; HiBiT,"inconclusive: 24.9 µM [inhibitor, single point]"
C[C@H]1[C@H](O)[C@@H](C)/C=C/C=C/CC/C=C/C=C/C=C/C=C/[C@H](O[C@@H]2O[C@H](C)[C@@H](O)[C@H](N)[C@@H]2O)C[C@@H]2O[C@](O)(C[C@@H](O)[C@H](O)CC[C@@H](O)C[C@@H](O)C[C@@H](O)CC(=O)O[C@H]1C)C[C@H](O)[C@H]2C(=O)O,Potency,[6],"inconclusive: 13.6 µM [inhibitor, partial curve, poor fit]"
same,Potency,[7],"inconclusive: 12.8 µM [inhibitor, partial curve, poor fit]"
CC(=O)OC[C@H]1O[C@@H]([S-])[C@H](OC(C)=O)[C@@H](OC(C)=O)[C@@H]1OC(C)=O.CC[PH+](CC)CC.[Au],Potency,[8],"inconclusive: 29 µM [inhibitor, single point]"
CCC1/C=C/C=CCC(C)C(O)[C@@](C)(O)C(=O)C(C)C(O)C(C)C(=O)C(C)C(O)C(C)C=CC(=O)O[C@H]2C(C)C(CC1)O[C@]1(CCC(C)C(CC(C)O)O1)C2C (some centres not stated),"activity change, negative = inhibition",[5]; HiBiT,inactive: -31.9%
same,"activity change, negative = inhibition",[5]; Viability,inactive: -23.7%
CC(C)[C@]12O[C@H]1[C@@H]1O[C@@]13[C@@]1(C)CCC4=C(COC4=O)[C@@H]1C[C@@H]1O[C@@]13C2=O,"activity change, negative = inhibition",[5]; Viability,inactive: 4.52%
C=C(c1ccc(C(=O)O)cc1)c1cc2c(cc1C)C(C)(C)CCC2(C)C,Potency,[9],"inconclusive: 3.16 µM [inhibitor, full curve, poor fit]"
